Experiments:
Format in all cases: cell-based
[1] = test system: COLO 205 (doxorubicin-sensitive) human colonic adenocarcinoma cells; experiment: MTT antiproliferative assay, COLO 205; conditions: selectivity index, ratio of IC50 CCD-19Lu / COLO 205
Method: (§1) The antiproliferative effects of the isolated phenanthrenes (compounds 1–19) were evaluated using human cancer cell lines, including doxorubicin-sensitive colonic adenocarcinoma COLO 205 and multidrug-resistant colonic adenocarcinoma COLO 320/MDR-LRP (which expresses P-glycoprotein [MDR1] and LRP), as well as non-cancerous human lung fibroblast CCD-19Lu cells. CCD-19Lu was chosen because it is a well-characterized, non-tumorigenic cell line commonly used to assess general cytotoxicity. Moreover, data from the literature support the use of lung fibroblast cell lines—including CCD-19Lu—as normal controls in studies involving colon cancer cells such as Colo 205 and Colo 320 [33]. The thiazolyl blue tetrazolium bromide (MTT) assay was employed to determine the concentration of each compound required to inhibit 50% of the cell viability (IC50), as summarized in Table 3.
(§2) The human colon adenocarcinoma cells—COLO 205 (CCL-222, doxorubicin-sensitive) and COLO 320/MDR-LRP (ATCC-CCL-220.1, multidrug-resistant, expressing P-gp)—were cultured in RPMI 1640 medium supplemented with 10% heat-inactivated fetal bovine serum, 2 mM of L-glutamine, 1 mM of sodium pyruvate, and 100 mM of HEPES. The non-cancerous human lung fibroblast cell line CCD-19Lu was maintained in Eagle’s Minimal Essential Medium (EMEM; containing 4.5 g/L of glucose) supplemented with a non-essential amino acid mixture, selected vitamins, and 10% heat-inactivated fetal bovine serum. All of the cell lines were detached using 0.25% trypsin and 0.02% EDTA for 5 min at 37 °C. The cell lines were obtained from LGC Promochem (Teddington, England).
(§3) Human colonic adenocarcinoma cell lines—doxorubicin-sensitive COLO 205 and multidrug-resistant COLO 320—as well as the non-cancerous human lung fibroblast cell line CCD-19Lu were used to evaluate the effects of the test compounds on cell proliferation. The assays were conducted in 96-well flat-bottomed microtiter plates. Stock solutions of the compounds were prepared in dimethyl sulfoxide (DMSO), with the final DMSO concentration kept below 1% in all samples. The compounds were diluted in 100 µL of the appropriate culture medium. Adherent cells were cultured in EMEM supplemented with 10% heat-inactivated fetal bovine serum and seeded into 96-well plates at a density of 6 × 10^3 cells per 100 µL per well. The cells were allowed to adhere for 24 h at 37 °C in a humidified incubator with 5% CO2. After incubation, the medium was removed and replaced with 100 µL of fresh medium. Serial dilutions of the compounds were prepared in separate plates and added to the cells, starting from a concentration of 100 µM with twofold serial dilutions (final concentration range: 100–0.19 µM). The cells were then incubated for 72 h at 37 °C. At the end of the incubation period, 20 µL of thiazolyl blue tetrazolium bromide (MTT) solution (5 mg/mL, Sigma) was added to each well. After 4 h of incubation at 37 °C, 100 µL of 10% sodium dodecyl sulfate (SDS) in 0.01 M HCl was added to solubilize the formazan crystals, and the plates were incubated overnight at 37 °C. Cell viability was assessed by measuring the optical density (OD) at 540/630 nm using a Multiscan EX ELISA reader (Thermo Labsystems, Cheshire, WA, USA).
(§4) The inhibitory concentration that reduced cell growth by 50% (IC50) was determined from the dose–response curves. The percent inhibition was calculated using the formula100 − ((OD_sample − OD_medium control)/(OD_cell control − OD_medium control)) × 100
(§5) Dose–response curves were generated by plotting the percent inhibition against the logarithm of the compound concentrations and fitted using Prism5 software (Version 6, GraphPad Software Inc., San Diego, CA, USA). The IC50 values were derived from four independent experiments conducted in parallel for each cell line and are reported as the mean values.

[2] = test system: COLO 320/MDR-LRP multidrug-resistant human colonic adenocarcinoma cells; experiment: MTT antiproliferative assay, COLO 320; conditions: selectivity index; for SI CCD-19Lu/ COLO 320: ratio of IC50 CCD-19Lu / COLO 320; for SI COLO 205/ COLO 320: ratio of IC50 COLO 205 / COLO 320
Method: as §1, §2, §3, §4, §5

[3] = test system: CCD-19Lu non-cancerous human lung fibroblast cells; experiment: MTT antiproliferative assay, CCD-19Lu; conditions: cancer cells vs CCD-19Lu, from SI
Method: as §1, §2
Human colonic adenocarcinoma cell lines—doxorubicin-sensitive COLO 205 and multidrug-resistant COLO 320—as well as the non-cancerous human lung fibroblast cell line CCD-19Lu were used to evaluate the effects of the test compounds on cell proliferation. The assays were conducted in 96-well flat-bottomed microtiter plates. […] Cell viability was assessed by measuring the optical density (OD) at 540/630 nm using a Multiscan EX ELISA reader (Thermo Labsystems, Cheshire, WA, USA). […]

SMILES: C=Cc1cc2c(ccc3c(C)c(O)ccc32)cc1CO [Compound 2, tenuin B]
- SI CCD-19Lu/ COLO 205 [1]: 1.99
- SI CCD-19Lu/ COLO 320 [2]: 2.51
- SI COLO 205/ COLO 320 [2]: 1.26

SMILES: C=Cc1cc(O)c(CO)c2c1-c1ccc(O)c(C)c1CC2 [Compound 3, 2,7-dihydroxy-8-hydroxymethyl-1-methyl-5-vinyl-9,10-dihydrophenanthrene]
- SI CCD-19Lu/ COLO 205 [1]: ≤0.97
- SI CCD-19Lu/ COLO 320 [2]: ≤0.97

SMILES: C=Cc1cc(O)cc2c1-c1cc(-c3cc4c(c(C)c3O)CCc3cc(O)cc(C(C)OC)c3-4)c(O)c(C)c1CC2 (centres unmarked) [Compound 4, tenuin D]
- SI CCD-19Lu/ COLO 205 [1]: 1.31
- selectivity towards tumor cells (in words) [3]: lacked selectivity
- SI CCD-19Lu/ COLO 320 [2]: 0.63
- SI COLO 205/ COLO 320 [2]: 0.49

SMILES: C=Cc1cc(O)cc2c1-c1cc(-c3c(O)cc4c(c3C=C)-c3ccc(O)c(C)c3CC4)c(O)c(C)c1CC2 [Compound 5, 1,1′-dimethyl-5,5′-divinyl-9,9′,10,10′-tetrahydro-[6,3′-biphenanthrene]-2,2′,7,7′-tetraol]
- SI CCD-19Lu/ COLO 205 [1]: 1.19
- selectivity towards tumor cells (in words) [3]: lacked selectivity
- SI CCD-19Lu/ COLO 320 [2]: 1.15
- SI COLO 205/ COLO 320 [2]: 0.97

SMILES: C=Cc1cc(O)cc2ccc3c(C)c(O)ccc3c12 [Compound 6, dehydroeffusol]
- SI CCD-19Lu/ COLO 205 [1]: 1.58
- SI CCD-19Lu/ COLO 320 [2]: 1.63
- SI COLO 205/ COLO 320 [2]: 1.03

SMILES: C=Cc1c(C)c(O)cc2ccc3c(C)c(O)ccc3c12 [Compound 7, dehydrojuncusol]
- SI CCD-19Lu/ COLO 205 [1]: 1.49
- SI CCD-19Lu/ COLO 320 [2]: 0.93
- SI COLO 205/ COLO 320 [2]: 0.62

SMILES: C=Cc1c(C)c(O)cc2c1ccc1c(C)c(O)ccc12 [Compound 8, dehydrojuncuenin B]
- SI CCD-19Lu/ COLO 205 [1]: 1.10
- SI CCD-19Lu/ COLO 320 [2]: 1.27
- SI COLO 205/ COLO 320 [2]: 1.16

SMILES: C=Cc1c(CO)ccc2c1ccc1c(C)c(O)ccc12 [Compound 9]
- SI CCD-19Lu/ COLO 205 [1]: ≤0.75
- SI CCD-19Lu/ COLO 320 [2]: 1.77
- SI COLO 205/ COLO 320 [2]: ≥2.35

SMILES: C=Cc1cc(O)cc2c1-c1ccc(O)c(C)c1CC2 [Compound 10, effusol]
- SI CCD-19Lu/ COLO 205 [1]: 1.82
- SI CCD-19Lu/ COLO 320 [2]: 1.93
- SI COLO 205/ COLO 320 [2]: 1.06

SMILES: C=Cc1c(C)c(O)cc2c1-c1ccc(O)c(C)c1CC2 [Compound 11, juncusol]
- SI CCD-19Lu/ COLO 205 [1]: 1.39
- SI CCD-19Lu/ COLO 320 [2]: 1.23
- SI COLO 205/ COLO 320 [2]: 0.88

SMILES: C=Cc1cc(O)cc2c1-c1ccc(OC)c(C)c1CC2 [Compound 12]
- SI CCD-19Lu/ COLO 205 [1]: 0.83
- SI CCD-19Lu/ COLO 320 [2]: 1.13
- SI COLO 205/ COLO 320 [2]: 1.36

SMILES: C=Cc1cc(CO)cc2c1-c1ccc(O)c(C)c1CC2 [Compound 13]
- SI CCD-19Lu/ COLO 205 [1]: 1.87
- SI CCD-19Lu/ COLO 320 [2]: 1.97
- SI COLO 205/ COLO 320 [2]: 1.05

SMILES: C=Cc1cc(C=O)cc2c1-c1ccc(O)c(C)c1CC2 [Compound 14]
- SI CCD-19Lu/ COLO 205 [1]: 1.16
- SI CCD-19Lu/ COLO 320 [2]: 1.68
- SI COLO 205/ COLO 320 [2]: 1.45

SMILES: C=Cc1cc(C(=O)O)cc2c1-c1ccc(O)c(C)c1CC2 [Compound 15]
- SI CCD-19Lu/ COLO 205 [1]: ≥2.20
- SI CCD-19Lu/ COLO 320 [2]: ≥2.10
- SI COLO 205/ COLO 320 [2]: 0.95

SMILES: C=Cc1c(C)c(O)cc2c1-c1ccc(OC)c(C)c1CC2 [Compound 16, compressin A]
- SI CCD-19Lu/ COLO 205 [1]: 0.78
- SI CCD-19Lu/ COLO 320 [2]: 1.46
- SI COLO 205/ COLO 320 [2]: 1.87

SMILES: C=Cc1cc(O)c(C)c2c1-c1ccc(O)c(C)c1CC2 [Compound 17, 2,7-dihydroxy-1,8-dimethyl-5-vinyl-9,10-dihydrophenanthrene]
- SI CCD-19Lu/ COLO 205 [1]: 1.50
- SI CCD-19Lu/ COLO 320 [2]: 1.85
- SI COLO 205/ COLO 320 [2]: 1.23

SMILES: C=Cc1c(CO)ccc2c1CCc1c-2ccc(O)c1C [Compound 18]
- SI CCD-19Lu/ COLO 205 [1]: 1.41
- SI CCD-19Lu/ COLO 320 [2]: 2.25
- SI COLO 205/ COLO 320 [2]: 1.59

SMILES: C=Cc1cc(O)cc2c1-c1cc(-c3cc4c(c(C)c3O)CCc3cc(O)cc(C=C)c3-4)c(O)c(C)c1CC2 [Compound 19, effususin A]
- SI CCD-19Lu/ COLO 205 [1]: 1.72
- selectivity towards tumor cells (in words) [3]: lacked selectivity
- SI CCD-19Lu/ COLO 320 [2]: 1.09
- SI COLO 205/ COLO 320 [2]: 0.63

Reference: paper PMC12386809, “Phenanthrene Monomers and Dimers from Juncus tenuis with Antiproliferative Activity and Synergistic Effect with Doxorubicin Against Human Colon Cancer Cell Lines” (International Journal of Molecular Sciences, 2025)
